Results are given in words; binding and its absence hold for the method and conditions named. Binding seen in cells or lysates may run through a third protein. Some binding calls cover weakened binding; strength is not graded here. For some assays here: Sequences can lack the tags named with a protein. Blank lines part the entries; values can stand above or below the binder they belong to.
Assays:
[1] = biological target: MDM2, endogenous in human NSCLC cells (human (endogenous in A549 and H1299)) (UniProt Q00987); test: co-IP; endogenous proteins, A549 cell lysate; IP with mouse anti-MDM2 or rabbit anti-KL; immunoblot; some samples with si-SHANK1
[2] = biological target: SHANK1-myc (SH3 and multiple ankyrin repeat domains 1, myc-tagged) (UniProt Q9Y566); test: co-IP; transfected A549 cells (the text says HEK-293 for Fig. 5A); lysate in TNE buffer or IP buffer (50 mM Tris-HCl, 2 mM EDTA, 250 mM NaCl, 10% glycerol, 0.5% NP-40); IP with anti-FLAG, anti-HA or anti-Myc and Protein G agarose overnight at 4 °C; immunoblot; some samples with SHANK1 overexpression, sh/si-SHANK1 or si-MDM2

By UniProt entry, the sequences of proteins in these tests, tags left out.
UniProt Q00987: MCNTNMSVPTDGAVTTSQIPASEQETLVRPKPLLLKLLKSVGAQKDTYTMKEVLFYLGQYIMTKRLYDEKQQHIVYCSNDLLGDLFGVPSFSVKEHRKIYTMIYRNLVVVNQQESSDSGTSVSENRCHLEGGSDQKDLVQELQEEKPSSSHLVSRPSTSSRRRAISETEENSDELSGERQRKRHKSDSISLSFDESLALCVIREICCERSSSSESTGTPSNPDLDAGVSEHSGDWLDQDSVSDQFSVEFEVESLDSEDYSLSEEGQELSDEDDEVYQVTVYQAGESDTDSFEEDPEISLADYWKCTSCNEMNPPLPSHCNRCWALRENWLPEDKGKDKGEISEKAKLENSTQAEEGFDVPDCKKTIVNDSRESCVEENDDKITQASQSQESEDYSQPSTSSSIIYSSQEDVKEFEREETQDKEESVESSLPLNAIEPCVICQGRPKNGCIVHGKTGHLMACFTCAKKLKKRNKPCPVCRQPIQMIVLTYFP
UniProt Q9Y566: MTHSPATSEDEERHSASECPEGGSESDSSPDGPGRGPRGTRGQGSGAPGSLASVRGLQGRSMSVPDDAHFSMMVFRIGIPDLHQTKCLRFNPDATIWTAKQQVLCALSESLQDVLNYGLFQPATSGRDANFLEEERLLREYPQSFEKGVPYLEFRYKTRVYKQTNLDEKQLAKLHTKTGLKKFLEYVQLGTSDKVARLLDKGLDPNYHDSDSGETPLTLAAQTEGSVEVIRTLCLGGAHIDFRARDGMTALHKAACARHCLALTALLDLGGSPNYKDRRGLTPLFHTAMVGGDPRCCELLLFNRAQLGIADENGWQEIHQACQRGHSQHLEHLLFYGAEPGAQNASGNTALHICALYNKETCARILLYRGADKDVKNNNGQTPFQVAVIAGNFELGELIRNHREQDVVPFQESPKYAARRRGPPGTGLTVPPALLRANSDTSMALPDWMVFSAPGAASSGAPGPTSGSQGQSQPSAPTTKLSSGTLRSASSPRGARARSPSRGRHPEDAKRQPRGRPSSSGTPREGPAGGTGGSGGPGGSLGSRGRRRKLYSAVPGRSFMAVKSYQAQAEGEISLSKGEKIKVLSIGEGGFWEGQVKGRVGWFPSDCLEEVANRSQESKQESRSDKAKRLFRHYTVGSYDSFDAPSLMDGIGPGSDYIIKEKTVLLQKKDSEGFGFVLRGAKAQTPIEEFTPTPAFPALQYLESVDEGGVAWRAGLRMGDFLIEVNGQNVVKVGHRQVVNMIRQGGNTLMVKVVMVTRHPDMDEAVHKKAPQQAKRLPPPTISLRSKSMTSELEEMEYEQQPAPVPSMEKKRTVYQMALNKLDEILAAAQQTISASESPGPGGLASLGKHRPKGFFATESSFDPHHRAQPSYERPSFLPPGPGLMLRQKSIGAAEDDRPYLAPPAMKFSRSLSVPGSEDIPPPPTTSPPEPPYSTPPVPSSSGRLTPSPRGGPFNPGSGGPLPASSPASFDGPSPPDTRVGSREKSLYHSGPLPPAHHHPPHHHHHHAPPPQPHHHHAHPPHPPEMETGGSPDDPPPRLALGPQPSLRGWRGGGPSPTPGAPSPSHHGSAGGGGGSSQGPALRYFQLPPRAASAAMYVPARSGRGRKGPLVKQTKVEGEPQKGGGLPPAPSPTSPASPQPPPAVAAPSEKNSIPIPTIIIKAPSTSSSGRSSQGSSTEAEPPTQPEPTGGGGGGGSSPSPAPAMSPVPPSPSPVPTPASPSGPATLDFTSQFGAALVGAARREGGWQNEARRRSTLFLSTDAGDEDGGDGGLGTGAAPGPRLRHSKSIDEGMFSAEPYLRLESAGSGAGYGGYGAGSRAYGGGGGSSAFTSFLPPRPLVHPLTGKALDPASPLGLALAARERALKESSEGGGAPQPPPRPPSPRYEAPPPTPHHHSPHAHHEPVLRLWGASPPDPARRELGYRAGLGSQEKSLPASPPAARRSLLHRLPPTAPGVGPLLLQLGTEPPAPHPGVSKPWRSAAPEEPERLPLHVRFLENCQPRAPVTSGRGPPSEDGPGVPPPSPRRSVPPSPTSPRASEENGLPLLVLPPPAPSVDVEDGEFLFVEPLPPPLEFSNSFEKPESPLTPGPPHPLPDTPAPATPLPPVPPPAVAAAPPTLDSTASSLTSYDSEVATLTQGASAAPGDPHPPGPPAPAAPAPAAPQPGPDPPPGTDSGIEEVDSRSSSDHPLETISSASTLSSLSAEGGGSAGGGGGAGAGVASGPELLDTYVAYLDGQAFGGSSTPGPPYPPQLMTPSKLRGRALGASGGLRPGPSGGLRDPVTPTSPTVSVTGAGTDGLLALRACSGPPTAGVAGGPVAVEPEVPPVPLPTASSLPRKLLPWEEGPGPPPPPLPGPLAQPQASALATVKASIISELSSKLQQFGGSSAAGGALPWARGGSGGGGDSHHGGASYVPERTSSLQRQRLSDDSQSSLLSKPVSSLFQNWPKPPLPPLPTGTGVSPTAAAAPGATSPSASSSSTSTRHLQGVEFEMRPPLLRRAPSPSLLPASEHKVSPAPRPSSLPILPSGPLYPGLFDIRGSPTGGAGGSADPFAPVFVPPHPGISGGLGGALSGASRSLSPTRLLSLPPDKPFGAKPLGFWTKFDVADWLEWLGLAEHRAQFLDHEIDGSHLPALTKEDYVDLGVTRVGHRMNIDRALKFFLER

binding [1]: binds
B1: Klotho (KL), endogenous in human NSCLC cells (protein, UniProt Q9UEF7 34-1012)
chain: EPGDGAQTWARFSRPPAPEAAGLFQGTFPDGFLWAVGSAAYQTEGGWQQHGKGASIWDTFTHHPLAPPGDSRNASLPLGAPSPLQPATGDVASDSYNNVFRDTEALRELGVTHYRFSISWARVLPNGSAGVPNREGLRYYRRLLERLRELGVQPVVTLYHWDLPQRLQDAYGGWANRALADHFRDYAELCFRHFGGQVKYWITIDNPYVVAWHGYATGRLAPGIRGSPRLGYLVAHNLLLAHAKVWHLYNTSFRPTQGGQVSIALSSHWINPRRMTDHSIKECQKSLDFVLGWFAKPVFIDGDYPESMKNNLSSILPDFTESEKKFIKGTADFFALCFGPTLSFQLLDPHMKFRQLESPNLRQLLSWIDLEFNHPQIFIVENGWFVSGTTKRDDAKYMYYLKKFIMETLKAIKLDGVDVIGYTAWSLMDGFEWHRGYSIRRGLFYVDFLSQDKMLLPKSSALFYQKLIEKNGFPPLPENQPLEGTFPCDFAWGVVDNYIQVDTTLSQFTDLNVYLWDVHHSKRLIKVDGVVTKKRKSYCVDFAAIQPQIALLQEMHVTHFRFSLDWALILPLGNQSQVNHTILQYYRCMASELVRVNITPVVALWQPMAPNQGLPRLLARQGAWENPYTALAFAEYARLCFQELGHHVKLWITMNEPYTRNMTYSAGHNLLKAHALAWHVYNEKFRHAQNGKISIALQADWIEPACPFSQKDKEVAERVLEFDIGWLAEPIFGSGDYPWVMRDWLNQRNNFLLPYFTEDEKKLIQGTFDFLALSHYTTILVDSEKEDPIKYNDYLEVQEMTDITWLNSPSQVAVVPWGLRKVLNWLKFKYGDLPMYIISNGIDDGLHAEDDQLRVYYMQNYINEALKAHILDGINLCGYFAYSFNDRTAPRFGLYRYAADQFEPKASMKHYRKIIDSNGFPGPETLERFCPEEFTVCTECSFFHTRKSLLAFIAFLFFASIISLSLIFYYSKKGRRSYK

binding [2]: binds
B2: Flag-KL (Flag-tagged Klotho) (protein, UniProt Q9UEF7 34-1012)
chain: B1 chain

From paper PMC9039064
